{"source": "PubChem BioAssay AID2685", "about": "(National Center for Advancing Translational Sciences (NCATS), 2010)", "note": "This is one part of the list.", "data": [{"assay": "qHTS Assay for Lipid Storage Modulators in Drosophila S3 Cells;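 note: cells counted by Cell Tracker Red CMTPX staining in the red channel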", "conditions": "BODIPY lipid droplet fluorescence, 18-24 h, measured here: cell count max response, cells fed with added oleic acid", "units": {"cell number change": "%"}, "values": [{"molecule": "Cc1ccc(NP(=O)(Oc2ccccc2F)Oc2ccccc2F)nc1", "cell number change": 9.29}, {"molecule": "COc1ccccc1OP(C)(=O)Nc1ccc(C)c(C)c1", "note": "(stereo not drawn)", "cell number change": 0.279}, {"molecule": "COc1ccc(OP(C)(=O)Nc2ccccc2Br)cc1", "note": "(stereo not drawn)", "cell number change": -9.08}, {"molecule": "O=C(O)c1ccccc1[As](=O)(O)O", "cell number change": 0}, {"molecule": "O=P(Nc1nc2ccc(Cl)cc2s1)(c1ccccc1)c1ccccc1", "cell number change": 2.13}, {"molecule": "CCN(N=Nc1nonc1N)c1nonc1N", "cell number change": 18}, {"molecule": "Nc1cccc2ccc([As](=O)(O)O)cc12", "cell number change": -9.05}, {"molecule": "CP(=O)(OCCOc1ccccc1)OCCOc1ccccc1", "cell number change": 0}, {"molecule": "Cc1nc2ccc3ccccc3c2o1.O=[N+]([O-])c1cc([N+](=O)[O-])c(O)c([N+](=O)[O-])c1", "cell number change": 5.73}, {"molecule": "O=[N+]([O-])c1cc([N+](=O)[O-])c(CCN2CCOCC2)c([N+](=O)[O-])c1", "cell number change": 19.4}, {"molecule": "O=C(Nc1cc([As](=O)(O)O)ccc1O)c1ccccc1", "cell number change": 6.03}, {"molecule": "CC(=O)N1C2C3N(C(C)=O)C1C1N(C(C)=O)C(C(N1C(C)=O)N3C(C)=O)N2C(C)=O", "cell number change": -19.3}, {"molecule": "O=C(OCCCN1CCCC1)C(O)(c1ccccc1)C1CCCCC1", "note": "(stereo not drawn)", "cell number change": 6.19}, {"molecule": "O=[N+]([O-])c1cc([N+](=O)[O-])c(CCNc2ccccc2)c([N+](=O)[O-])c1", "cell number change": 20.2}, {"molecule": "COc1ccc(C2=NCC(CBr)S2)cc1", "note": "(stereo not drawn)", "cell number change": 6.92}, {"molecule": "CC(C)=N/N=C(\\N)N[N+](=O)[O-]", "cell number change": 11.9}, {"molecule": "CC1CCN(C(=O)Oc2c(Cl)cc(Cl)c3cccnc23)CC1", "cell number change": -3.64}, {"molecule": "COc1ccccc1OP(C)(=O)Nc1ccccc1Br", "note": "(stereo not drawn)", "cell number change": 6.74}, {"molecule": "CP(=O)(Nc1ccc(Cl)cc1)Oc1ccc(F)cc1", "note": "(stereo not drawn)", "cell number change": 3.46}, {"molecule": "COP1(=S)c2c(C)nn(CCC#N)c2N=C(c2ccc(F)cc2)N1C", "note": "(stereo not drawn)", "cell number change": 0}, {"molecule": "CP(=O)(Nc1ccccn1)Oc1ccc(Cl)cc1", "note": "(stereo not drawn)", "cell number change": -7.09}, {"molecule": "CCOC(=O)c1ccc(NP(C)(=O)Oc2ccc(OC)cc2)cc1", "note": "(stereo not drawn)", "cell number change": 6.73}, {"molecule": "CCOP(C)(=S)SCC(=O)NC(C)C(=O)O", "note": "(stereo not drawn)", "cell number change": 7.18}, {"molecule": "Cc1cc(SC(NC(=O)c2ccccc2)C(Cl)(Cl)Cl)nc(C(C)C)n1", "note": "(stereo not drawn)", "cell number change": -4.11}, {"molecule": "CCOC(=O)Nc1ccc([As](=O)(O)O)c(O)c1", "cell number change": 10}, {"molecule": "CP(=O)(Nc1ccccc1Br)Oc1ccccc1", "note": "(stereo not drawn)", "cell number change": 8.69}, {"molecule": "O=[N+]([O-])c1ccc(Nc2ccc(Oc3ccc([N+](=O)[O-])cc3[N+](=O)[O-])cc2)c([N+](=O)[O-])c1", "cell number change": 4.47}, {"molecule": "Cc1cc(SC(NC=O)C(Cl)(Cl)Cl)ncn1", "note": "(stereo not drawn)", "cell number change": 0}, {"molecule": "COc1ccccc1OP(C)(=O)Nc1ccccc1", "note": "(stereo not drawn)", "cell number change": -11.9}, {"molecule": "O=[N+]([O-])c1ccc2c(c1)C=Nc1ccccc1O2", "cell number change": -7.02}, {"molecule": "C[As](=O)(O)c1cccc(C(=O)O)c1", "cell number change": -2.76}, {"molecule": "O=[As](O)(c1ccc(O)cc1)c1ccccc1O", "cell number change": 4.07}, {"molecule": "O=[N+]([O-])c1cc([N+](=O)[O-])c(Nc2cccnc2)c([N+](=O)[O-])c1", "cell number change": 8.45}, {"molecule": "CCN(CC)C(=S)SC(NC=O)C(Cl)(Cl)Cl", "note": "(stereo not drawn)", "cell number change": -6.9}, {"molecule": "COc1ccccc1OP(C)(=O)Nc1cc(Cl)ccc1C", "note": "(stereo not drawn)", "cell number change": 16.3}, {"molecule": "Cc1ccc(NP(C)(=O)Oc2ccccc2)c(C)c1", "note": "(stereo not drawn)", "cell number change": 8.19}, {"molecule": "CC(C)c1ccc(OP(=O)(Nc2ccccn2)Oc2ccccc2F)cc1", "note": "(stereo not drawn)", "cell number change": 9.18}, {"molecule": "CCOC(=O)c1ccc(NP(C)(=O)Oc2ccccc2)cc1", "note": "(stereo not drawn)", "cell number change": 0}, {"molecule": "ClCCSc1nnc(-c2cccnc2)o1", "cell number change": -26.1}, {"molecule": "COc1cc(I)ccc1[As](=O)(O)O", "cell number change": 16.4}, {"molecule": "Cc1cc(=O)[nH]c(N[N+](=O)[O-])n1", "cell number change": 5.17}, {"molecule": "Cc1c2c(nc3ccccc13)SC(C(Cl)Cl)C2", "note": "(stereo not drawn)", "cell number change": -2.23}, {"molecule": "COc1ccc(N/C(=N/P(=O)(N2CCOCC2)N2CCOCC2)N2CCOCC2)cc1", "cell number change": 9.94}, {"molecule": "CCOC(=O)c1ccc(NP(C)(=O)Oc2cc(C)cc(C)c2)cc1", "note": "(stereo not drawn)", "cell number change": 0.986}, {"molecule": "O=[As](O)(c1cccc(O)c1)c1cccc(O)c1", "cell number change": -5.29}, {"molecule": "O=[As](O)(O)c1cccnc1", "cell number change": -3.57}, {"molecule": "COc1ccccc1OP(C)(=O)Nc1cccc(Br)c1", "note": "(stereo not drawn)", "cell number change": 5.78}, {"molecule": "O=C(OC1CN2CCC1CC2)c1ccc(Cl)cc1", "note": "(stereo not drawn)", "cell number change": 17.9}, {"molecule": "CCOP(=O)(Nc1cccc2ccccc12)OCC", "cell number change": 0}, {"molecule": "CCCOP(=S)(Nc1nc(N)cc(=O)[nH]1)OCCC", "cell number change": 13}, {"molecule": "Nc1cccc2c([As](=O)(O)O)cccc12", "cell number change": -11.5}, {"molecule": "O=C(O)COc1ccc([As](=O)(O)O)cc1[N+](=O)[O-]", "cell number change": 21.2}, {"molecule": "Nc1ccccc1[As](=O)(O)c1ccccc1", "cell number change": -2.69}, {"molecule": "O=P(Nc1nccs1)(c1ccccc1)c1nc2ccccc2s1", "note": "(stereo not drawn)", "cell number change": 13.5}, {"molecule": "O=P(Nc1nccs1)(Oc1ccccc1)Oc1ccccc1", "cell number change": 1.5}, {"molecule": "CCOP1(=S)c2c(C)nn(CCC#N)c2N=C(c2ccc(F)cc2)N1C", "note": "(stereo not drawn)", "cell number change": -10.2}, {"molecule": "CN(C(=O)Cc1ccccc1)[C@@H]1CC[C@]2(CCCO2)C[C@H]1N1CCCC1", "cell number change": -4.47}, {"molecule": "NC(=O)Nc1ccc([As](=O)(O)O)cc1", "cell number change": 2.64}, {"molecule": "O=[N+]([O-])c1cc([N+](=O)[O-])c(Nc2nnnn2CCO)c([N+](=O)[O-])c1", "cell number change": 1.15}, {"molecule": "CC1=C2N=C(C=C3N=C(C(C)=C4[N-][C@@](C)([C@@H]5N=C1[C@](C)(CCC(=O)NC[C@@H](C)OP(=O)([O-])O[C@H]1[C@@H](O)[C@@H](n6cnc7cc(C)c(C)cc76)O[C@@H]1CO)[C@H]5CC(N)=O)[C@@](C)(CC(N)=O)[C@@H]4CCC(N)=O)[C@@](C)(CC(N)=O)[C@@H]3CCC(N)=O)C(C)(C)[C@@H]2CCC(N)=O.[C-]#N.[Co+3]", "cell number change": 7.77}, {"molecule": "CN(C)C1(CNC(=O)c2ccc(S(C)(=O)=O)cc2)CCCCC1", "cell number change": 7.29}, {"molecule": "Cc1ccc(C(=O)OC2CN3CCC2CC3)cc1", "note": "(stereo not drawn)", "cell number change": -4.15}, {"molecule": "Nc1cccc([As](=O)(O)c2ccccc2)c1", "cell number change": 6.81}, {"molecule": "O=P1(Nc2ncccn2)COc2ccccc2OC1", "cell number change": 7.76}, {"molecule": "COc1ccccc1OP(C)(=O)Nc1c(C)cccc1C", "note": "(stereo not drawn)", "cell number change": 3.11}, {"molecule": "Clc1n[nH]nc1-c1nn[nH][15n]1", "cell number change": 2.63}, {"molecule": "CCOP(=O)(Nc1ccc(C)cn1)OCC", "cell number change": -3.99}, {"molecule": "CN(C(=O)Cc1ccc(Cl)c(Cl)c1)[C@@H]1CCCC[C@H]1N1CCCC1", "cell number change": -3.78}]}]}
